This note sets out measurements from the supplement of paper PMC7666118.

Amino acid sequences for entries named in this document (tags omitted). A change or cut given only in a name is not applied to a line headed by its entry.
UniProt Q8N4C6: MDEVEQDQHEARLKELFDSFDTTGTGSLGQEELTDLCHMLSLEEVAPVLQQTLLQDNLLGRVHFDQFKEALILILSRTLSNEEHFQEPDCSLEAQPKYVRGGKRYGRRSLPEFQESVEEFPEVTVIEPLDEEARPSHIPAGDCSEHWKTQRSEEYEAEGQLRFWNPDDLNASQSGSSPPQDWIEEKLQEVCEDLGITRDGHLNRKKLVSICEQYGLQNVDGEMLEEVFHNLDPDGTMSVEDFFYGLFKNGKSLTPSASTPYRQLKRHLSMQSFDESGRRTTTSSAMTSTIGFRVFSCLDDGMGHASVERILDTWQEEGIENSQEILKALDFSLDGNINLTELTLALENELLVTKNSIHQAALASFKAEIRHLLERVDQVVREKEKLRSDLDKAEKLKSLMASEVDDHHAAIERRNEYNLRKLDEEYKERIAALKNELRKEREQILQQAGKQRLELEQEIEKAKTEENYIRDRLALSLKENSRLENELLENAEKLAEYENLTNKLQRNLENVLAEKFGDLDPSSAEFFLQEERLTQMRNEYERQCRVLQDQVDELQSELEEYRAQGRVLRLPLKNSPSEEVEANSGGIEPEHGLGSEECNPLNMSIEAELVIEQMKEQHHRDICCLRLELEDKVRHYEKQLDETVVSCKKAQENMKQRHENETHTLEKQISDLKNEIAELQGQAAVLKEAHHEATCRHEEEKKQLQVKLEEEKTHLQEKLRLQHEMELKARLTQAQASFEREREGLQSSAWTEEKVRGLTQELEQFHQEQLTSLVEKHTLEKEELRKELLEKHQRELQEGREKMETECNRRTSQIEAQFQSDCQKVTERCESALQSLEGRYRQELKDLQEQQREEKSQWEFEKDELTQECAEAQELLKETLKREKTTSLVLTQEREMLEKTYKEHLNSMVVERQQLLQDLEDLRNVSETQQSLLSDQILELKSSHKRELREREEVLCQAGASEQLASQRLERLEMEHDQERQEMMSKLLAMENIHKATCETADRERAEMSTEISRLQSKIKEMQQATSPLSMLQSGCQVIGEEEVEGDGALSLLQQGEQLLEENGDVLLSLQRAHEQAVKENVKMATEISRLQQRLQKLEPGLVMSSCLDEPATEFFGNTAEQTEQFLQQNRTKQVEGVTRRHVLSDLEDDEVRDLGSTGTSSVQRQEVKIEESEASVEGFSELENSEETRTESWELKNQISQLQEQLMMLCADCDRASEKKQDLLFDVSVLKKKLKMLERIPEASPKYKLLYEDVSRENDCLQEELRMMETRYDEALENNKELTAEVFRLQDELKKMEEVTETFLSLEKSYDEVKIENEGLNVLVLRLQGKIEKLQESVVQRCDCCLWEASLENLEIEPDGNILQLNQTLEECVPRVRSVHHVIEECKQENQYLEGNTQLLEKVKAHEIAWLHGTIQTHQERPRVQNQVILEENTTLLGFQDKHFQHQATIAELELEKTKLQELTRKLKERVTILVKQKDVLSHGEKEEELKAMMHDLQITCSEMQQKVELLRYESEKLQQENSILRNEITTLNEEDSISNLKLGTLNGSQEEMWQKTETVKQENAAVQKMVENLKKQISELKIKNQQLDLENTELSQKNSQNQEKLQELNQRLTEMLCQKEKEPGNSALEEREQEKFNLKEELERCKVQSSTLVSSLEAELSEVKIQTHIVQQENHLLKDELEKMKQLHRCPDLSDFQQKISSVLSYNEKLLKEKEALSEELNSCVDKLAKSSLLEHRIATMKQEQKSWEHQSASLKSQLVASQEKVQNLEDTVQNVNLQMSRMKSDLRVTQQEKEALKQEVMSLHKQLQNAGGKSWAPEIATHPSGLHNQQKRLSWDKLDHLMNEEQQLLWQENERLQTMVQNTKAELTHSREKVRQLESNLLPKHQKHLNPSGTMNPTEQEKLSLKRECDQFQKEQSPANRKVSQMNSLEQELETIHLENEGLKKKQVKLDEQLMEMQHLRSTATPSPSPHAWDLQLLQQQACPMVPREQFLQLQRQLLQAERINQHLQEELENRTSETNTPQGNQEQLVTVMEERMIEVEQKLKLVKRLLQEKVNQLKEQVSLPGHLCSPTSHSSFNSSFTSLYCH
UniProt P61970, whole entry: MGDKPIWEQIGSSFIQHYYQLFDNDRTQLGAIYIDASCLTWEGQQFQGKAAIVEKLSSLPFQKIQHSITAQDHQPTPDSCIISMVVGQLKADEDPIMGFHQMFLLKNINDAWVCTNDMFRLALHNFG
UniProt Q92621: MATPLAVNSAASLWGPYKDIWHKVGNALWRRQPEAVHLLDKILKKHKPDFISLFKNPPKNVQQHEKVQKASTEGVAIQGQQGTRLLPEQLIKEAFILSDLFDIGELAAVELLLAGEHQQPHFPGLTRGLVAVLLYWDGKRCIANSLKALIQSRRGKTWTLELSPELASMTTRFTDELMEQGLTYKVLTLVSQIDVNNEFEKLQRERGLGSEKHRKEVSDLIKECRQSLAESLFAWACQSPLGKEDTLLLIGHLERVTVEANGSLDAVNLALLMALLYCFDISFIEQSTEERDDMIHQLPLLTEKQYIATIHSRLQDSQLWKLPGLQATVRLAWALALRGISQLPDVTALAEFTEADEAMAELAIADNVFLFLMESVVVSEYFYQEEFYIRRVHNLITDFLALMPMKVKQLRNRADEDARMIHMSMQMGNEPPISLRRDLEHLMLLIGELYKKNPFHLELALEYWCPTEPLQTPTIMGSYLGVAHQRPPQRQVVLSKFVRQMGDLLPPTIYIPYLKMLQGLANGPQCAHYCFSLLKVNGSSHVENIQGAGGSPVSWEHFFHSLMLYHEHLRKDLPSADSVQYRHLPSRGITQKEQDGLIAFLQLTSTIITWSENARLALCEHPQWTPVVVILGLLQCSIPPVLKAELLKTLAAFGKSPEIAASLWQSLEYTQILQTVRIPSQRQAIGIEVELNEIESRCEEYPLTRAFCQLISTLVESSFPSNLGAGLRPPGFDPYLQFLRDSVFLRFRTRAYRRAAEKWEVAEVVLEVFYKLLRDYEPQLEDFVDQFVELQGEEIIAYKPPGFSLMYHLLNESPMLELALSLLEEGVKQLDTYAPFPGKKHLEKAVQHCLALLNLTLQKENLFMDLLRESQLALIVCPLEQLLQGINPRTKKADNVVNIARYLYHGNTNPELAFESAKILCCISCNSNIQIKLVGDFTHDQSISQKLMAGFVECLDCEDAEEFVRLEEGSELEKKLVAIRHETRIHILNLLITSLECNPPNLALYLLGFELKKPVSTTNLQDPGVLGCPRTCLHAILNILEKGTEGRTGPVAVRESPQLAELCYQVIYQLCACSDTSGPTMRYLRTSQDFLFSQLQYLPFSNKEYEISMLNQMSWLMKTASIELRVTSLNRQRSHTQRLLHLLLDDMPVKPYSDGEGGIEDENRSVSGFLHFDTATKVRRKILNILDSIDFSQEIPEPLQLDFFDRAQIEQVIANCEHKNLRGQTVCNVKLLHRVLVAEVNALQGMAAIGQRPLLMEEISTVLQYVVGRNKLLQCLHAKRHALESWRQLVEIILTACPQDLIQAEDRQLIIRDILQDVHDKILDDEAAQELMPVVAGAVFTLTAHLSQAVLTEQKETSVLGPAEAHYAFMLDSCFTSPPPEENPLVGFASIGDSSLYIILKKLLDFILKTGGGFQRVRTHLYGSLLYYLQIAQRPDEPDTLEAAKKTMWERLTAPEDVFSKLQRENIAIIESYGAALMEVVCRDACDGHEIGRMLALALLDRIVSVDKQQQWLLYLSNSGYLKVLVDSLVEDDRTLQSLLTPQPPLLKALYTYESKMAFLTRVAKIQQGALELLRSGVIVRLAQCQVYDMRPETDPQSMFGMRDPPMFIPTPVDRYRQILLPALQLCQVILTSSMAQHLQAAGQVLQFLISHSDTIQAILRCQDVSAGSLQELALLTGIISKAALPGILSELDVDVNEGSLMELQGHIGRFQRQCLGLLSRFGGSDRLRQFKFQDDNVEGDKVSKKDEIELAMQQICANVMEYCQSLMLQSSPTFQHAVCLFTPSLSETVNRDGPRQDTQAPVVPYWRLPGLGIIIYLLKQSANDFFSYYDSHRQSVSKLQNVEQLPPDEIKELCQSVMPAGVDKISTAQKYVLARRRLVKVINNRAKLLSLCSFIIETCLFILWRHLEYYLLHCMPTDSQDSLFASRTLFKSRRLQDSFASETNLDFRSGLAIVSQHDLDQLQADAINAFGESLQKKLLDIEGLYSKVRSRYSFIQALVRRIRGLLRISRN
UniProt Q9BYT8, whole entry, looked up: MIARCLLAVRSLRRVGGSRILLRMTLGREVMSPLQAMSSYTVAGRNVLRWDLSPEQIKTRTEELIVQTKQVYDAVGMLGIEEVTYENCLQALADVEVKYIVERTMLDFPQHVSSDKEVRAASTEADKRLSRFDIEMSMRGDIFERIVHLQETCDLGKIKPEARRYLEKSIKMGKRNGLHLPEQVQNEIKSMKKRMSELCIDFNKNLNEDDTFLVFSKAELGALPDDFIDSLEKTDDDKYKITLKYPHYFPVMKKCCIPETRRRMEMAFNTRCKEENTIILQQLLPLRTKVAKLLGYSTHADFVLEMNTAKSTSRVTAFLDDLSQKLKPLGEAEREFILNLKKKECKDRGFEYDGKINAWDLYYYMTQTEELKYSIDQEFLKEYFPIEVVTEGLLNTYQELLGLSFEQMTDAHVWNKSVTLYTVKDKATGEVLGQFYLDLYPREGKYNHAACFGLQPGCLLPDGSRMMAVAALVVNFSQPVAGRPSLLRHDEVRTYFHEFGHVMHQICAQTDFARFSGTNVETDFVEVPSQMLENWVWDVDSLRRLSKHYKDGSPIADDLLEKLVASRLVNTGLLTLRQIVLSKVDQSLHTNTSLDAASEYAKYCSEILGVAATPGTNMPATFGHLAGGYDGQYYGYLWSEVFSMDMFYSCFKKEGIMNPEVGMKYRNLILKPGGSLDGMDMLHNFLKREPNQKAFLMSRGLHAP
UniProt Q96AB6: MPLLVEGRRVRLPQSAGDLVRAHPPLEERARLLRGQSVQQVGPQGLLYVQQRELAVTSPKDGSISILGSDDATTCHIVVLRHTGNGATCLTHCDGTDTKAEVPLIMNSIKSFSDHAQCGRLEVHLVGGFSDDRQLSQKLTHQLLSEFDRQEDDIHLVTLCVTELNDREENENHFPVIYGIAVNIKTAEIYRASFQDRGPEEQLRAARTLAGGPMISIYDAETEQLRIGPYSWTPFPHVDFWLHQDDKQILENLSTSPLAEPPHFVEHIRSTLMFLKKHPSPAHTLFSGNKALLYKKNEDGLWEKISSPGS
UniProt Q9HBE1: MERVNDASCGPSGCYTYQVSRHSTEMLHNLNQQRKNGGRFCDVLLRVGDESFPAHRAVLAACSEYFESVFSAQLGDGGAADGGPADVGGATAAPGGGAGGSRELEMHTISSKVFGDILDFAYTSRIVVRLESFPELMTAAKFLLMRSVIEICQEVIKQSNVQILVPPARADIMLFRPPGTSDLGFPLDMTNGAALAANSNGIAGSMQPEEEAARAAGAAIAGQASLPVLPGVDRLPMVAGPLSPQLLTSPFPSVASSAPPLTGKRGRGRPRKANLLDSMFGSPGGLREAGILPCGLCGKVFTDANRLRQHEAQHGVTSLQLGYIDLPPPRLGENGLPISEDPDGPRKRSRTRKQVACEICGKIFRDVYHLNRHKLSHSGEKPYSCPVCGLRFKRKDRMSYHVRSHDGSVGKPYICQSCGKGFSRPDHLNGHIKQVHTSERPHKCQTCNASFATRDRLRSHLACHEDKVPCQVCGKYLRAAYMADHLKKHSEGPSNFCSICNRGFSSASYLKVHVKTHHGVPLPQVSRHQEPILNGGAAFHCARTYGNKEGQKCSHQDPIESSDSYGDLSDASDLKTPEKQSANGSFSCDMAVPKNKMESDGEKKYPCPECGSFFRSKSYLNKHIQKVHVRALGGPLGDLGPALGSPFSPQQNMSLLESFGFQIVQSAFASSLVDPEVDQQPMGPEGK
UniProt Q96D46: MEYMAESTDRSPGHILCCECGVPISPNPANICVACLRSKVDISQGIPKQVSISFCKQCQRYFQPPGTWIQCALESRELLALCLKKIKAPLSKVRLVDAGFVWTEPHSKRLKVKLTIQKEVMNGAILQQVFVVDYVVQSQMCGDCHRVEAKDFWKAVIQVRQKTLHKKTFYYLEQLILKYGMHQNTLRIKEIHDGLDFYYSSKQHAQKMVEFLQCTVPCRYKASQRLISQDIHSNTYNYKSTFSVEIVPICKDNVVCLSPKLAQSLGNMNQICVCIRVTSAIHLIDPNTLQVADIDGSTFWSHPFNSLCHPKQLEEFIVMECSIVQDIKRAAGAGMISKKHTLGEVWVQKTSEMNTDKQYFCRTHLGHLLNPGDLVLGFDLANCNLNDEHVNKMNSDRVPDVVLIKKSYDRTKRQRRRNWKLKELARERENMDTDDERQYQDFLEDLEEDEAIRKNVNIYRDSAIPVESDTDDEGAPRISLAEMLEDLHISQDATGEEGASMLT

This is one part of the list.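 The calls were made as follows: active = dose-dependent thermal stabilisation significant by F-test of dose-response against flat model at 10% FDR; inactive = not significant.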

Compound in this experiment: Nc1nc2c(ncn2[C@@H]2O[C@H](COP(=O)(O)OP(=O)(O)OP(=O)(O)O)[C@@H](O)[C@H]2O)c(=O)[nH]1
Briefly: dose-dependent thermal stabilisation call (2D-TPP, DLPTP, 10% FDR) (binary (1 = stabilised)); higher = stabilised by the compound. To be noted: system: Jurkat gel-filtered lysate; concentration range 1-500 µM.
As to NCS1 (UniProt P62166), the “dose-dependent thermal stabilisation call” value is inactive: 0.

Regarding PARN (UniProt O95453), the “dose-dependent thermal stabilisation call” value is inactive: 0.

For the target NEK1 (UniProt Q96PY6), the “dose-dependent thermal stabilisation call” value was inactive: 0. Regarding NMT1 (UniProt P30419), the “dose-dependent thermal stabilisation call” value was inactive: 0.

With NIN (UniProt Q8N4C6), the “dose-dependent thermal stabilisation call” value was inactive: 0.

In the case of NUTF2 (UniProt P61970), the “dose-dependent thermal stabilisation call” value is inactive: 0.

Take NUMB (UniProt P49757): the “dose-dependent thermal stabilisation call” value was active: 1. Turning to NT5C (UniProt Q8TCD5), the “dose-dependent thermal stabilisation call” value was inactive: 0. As for NENF (UniProt Q9UMX5), the figure is inactive: 0; as for NEDD4 (UniProt P46934), inactive: 0. Regarding NARFL (UniProt Q9H6Q4), the “dose-dependent thermal stabilisation call” value is active: 1. In the case of NFKB1 (UniProt P19838) it was active: 1; in that of NCAPH2 (UniProt Q6IBW4), active: 1. As for NUP205 (UniProt Q92621), the figure is active: 1; as for NUMA1 (UniProt Q14980), inactive: 0. In the case of NLN (UniProt Q9BYT8) it was inactive: 0; in that of NEK9 (UniProt Q8TD19), inactive: 0.

NEO1 (UniProt Q92859): the “dose-dependent thermal stabilisation call” value was inactive: 0. With OVCA2 (UniProt Q8WZ82), the “dose-dependent thermal stabilisation call” value is active: 1.

OSBPL2 (UniProt Q9H1P3): the “dose-dependent thermal stabilisation call” value is active: 1.

Take NTAN1 (UniProt Q96AB6): the “dose-dependent thermal stabilisation call” value was inactive: 0.

On to NT5C3B (UniProt Q969T7), for which the “dose-dependent thermal stabilisation call” value was inactive: 0.

Regarding OPLAH (UniProt O14841), the “dose-dependent thermal stabilisation call” value is inactive: 0.

As for NCOA6 (UniProt Q14686), the “dose-dependent thermal stabilisation call” value is inactive: 0. In the case of NPLOC4 (UniProt Q8TAT6), the “dose-dependent thermal stabilisation call” value is inactive: 0. As for PATZ1 (UniProt Q9HBE1), the figure is inactive: 0.

In the case of PAPOLA (UniProt P51003), the “dose-dependent thermal stabilisation call” value is inactive: 0.

With NAA16 (UniProt Q6N069), the “dose-dependent thermal stabilisation call” value is active: 1. As to NEDD1 (UniProt Q8NHV4), the “dose-dependent thermal stabilisation call” value was inactive: 0. In the case of NOL11 (UniProt Q9H8H0) it was inactive: 0; in that of NUDCD1 (UniProt Q96RS6), inactive: 0; in that of NMD3 (UniProt Q96D46), inactive: 0. In the case of PALLD (UniProt Q8WX93) it was active: 1.

Turning to NIPBL (UniProt Q6KC79), the “dose-dependent thermal stabilisation call” value is inactive: 0. For ORC2 (UniProt Q13416), the “dose-dependent thermal stabilisation call” value was inactive: 0.

In the case of NMT2 (UniProt O60551), the “dose-dependent thermal stabilisation call” value is inactive: 0.
